In article PMC12979858:
No constants are given. Whether binding was seen depends on the method and setting. Binding seen in cells or lysates may run through a third protein. Some entries that bind do so weakly or less than the wild type. For some of these results: Sequences can lack the tags named with a protein.

The chains behind the UniProt entries cited, without tags or fusion partners.
UniProt Q8CGF6: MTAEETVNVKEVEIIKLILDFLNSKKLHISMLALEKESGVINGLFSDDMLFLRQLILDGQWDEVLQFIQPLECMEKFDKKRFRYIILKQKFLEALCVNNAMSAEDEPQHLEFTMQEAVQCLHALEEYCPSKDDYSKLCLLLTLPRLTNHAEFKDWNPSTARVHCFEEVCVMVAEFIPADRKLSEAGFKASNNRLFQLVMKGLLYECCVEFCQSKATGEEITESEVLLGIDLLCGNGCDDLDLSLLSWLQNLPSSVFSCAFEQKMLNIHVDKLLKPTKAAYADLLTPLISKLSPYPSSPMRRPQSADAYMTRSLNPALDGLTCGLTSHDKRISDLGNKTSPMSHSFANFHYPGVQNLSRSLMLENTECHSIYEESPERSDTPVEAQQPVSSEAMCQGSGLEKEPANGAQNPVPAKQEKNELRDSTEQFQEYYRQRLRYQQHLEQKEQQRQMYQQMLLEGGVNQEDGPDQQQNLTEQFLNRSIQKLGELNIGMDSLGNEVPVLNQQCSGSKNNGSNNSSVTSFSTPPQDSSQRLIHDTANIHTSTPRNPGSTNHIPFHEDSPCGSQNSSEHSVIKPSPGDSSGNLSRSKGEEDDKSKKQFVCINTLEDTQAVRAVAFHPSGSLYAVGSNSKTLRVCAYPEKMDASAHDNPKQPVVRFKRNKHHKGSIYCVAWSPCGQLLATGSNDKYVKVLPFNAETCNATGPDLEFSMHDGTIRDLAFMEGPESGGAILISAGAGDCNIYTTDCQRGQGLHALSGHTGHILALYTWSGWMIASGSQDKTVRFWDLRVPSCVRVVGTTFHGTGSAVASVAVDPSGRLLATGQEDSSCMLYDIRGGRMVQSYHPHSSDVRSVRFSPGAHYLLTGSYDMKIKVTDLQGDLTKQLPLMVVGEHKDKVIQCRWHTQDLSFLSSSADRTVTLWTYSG

Assays:
Assay in all cases: co-IP; HEK293T cells exogenously expressing the tagged proteins; high-salt lysis buffer (1% NP-40, 500 mM NaCl, 50 mM HEPES pH 7.8, 5 mM EDTA); anti-GFP or anti-Flag agarose beads, 4 C, 4 h; immunoblot
GFP-JHY (mouse) = GFP-JHY (mouse) (UniProt E9Q793)
[1] = target: T1, JHY first 150 residues (GFP-tagged fragment) (mouse) (UniProt E9Q793)
T1 sequence: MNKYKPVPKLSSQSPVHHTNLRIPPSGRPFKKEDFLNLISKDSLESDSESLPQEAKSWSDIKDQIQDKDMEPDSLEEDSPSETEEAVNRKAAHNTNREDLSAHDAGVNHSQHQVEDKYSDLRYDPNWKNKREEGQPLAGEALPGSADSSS

[2] = target: T2, SPEF1 (tagged, expressed in HEK293T) (mouse) (UniProt Q99JL1)
T2 sequence: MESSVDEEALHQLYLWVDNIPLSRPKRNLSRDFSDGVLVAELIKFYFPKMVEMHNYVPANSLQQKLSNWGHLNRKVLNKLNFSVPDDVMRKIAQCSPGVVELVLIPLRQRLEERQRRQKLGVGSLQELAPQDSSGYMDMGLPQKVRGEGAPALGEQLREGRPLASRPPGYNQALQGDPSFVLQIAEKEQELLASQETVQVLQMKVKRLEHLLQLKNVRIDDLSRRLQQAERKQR

| binding (GFP-JHY (mouse)) | binding [1] | binding [2] | Substance |
| --- | --- | --- | --- |
| binds | binds | binds | Flag-WDR47 (from UniProt Q8CGF6 1-920) |
| – | – | binds | GFP-JHY (from UniProt E9Q793 1-770) |
